Some peptides are written in HELM: one residue between dots, names in brackets for other building blocks, links after the first $.
Assay: general procedure: Fmoc solid-phase peptide synthesis; Rink Amide AM LL resin (0.29 mmol/g); DIC/Oxyma
Conditions: whole synthesis, scale 300 mg resin
“PEPTIDE1{V.N.W.K.K.I.L.G.K.I.I.K.V.V.K.[am]}$$$$V2.0” showed an isolated mass of 41 mg and an isolated yield of 20.2%.
In the case of “PEPTIDE1{[dF].[dA].[dK].[dK].[dF].[dF].[dK].[dK].[dF].[dA].[dK].[dF].[dA].[dF].[dK].[am]}$$$$V2.0”, the isolated mass is reported as 25.5 mg and the isolated yield is reported as 23.0%.
Work on “PEPTIDE1{[dV].[dN].[dW].[dK].[dK].[dI].[dL].G.[dK].[dI].[dI].[dK].[dV].[dV].[dK].[am]}$$$$V2.0” yielded an isolated mass of 26 mg and an isolated yield of 17.0%.
